Data as given in PubChem BioAssay AID504764 (Drosophila RNAi Screening Center, 2011).
Assay: 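Genome-wide screen for regulators of Notch-driven gene expression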 (primary screen). Cell system: Drosophila Kc167 cells. Reagent: long dsRNA against Drosophila genes. Timing: about 5 days (4 days dsRNA, then 24 h after transfection). Conditions: transfection of constitutively active membrane-tethered Notch lacking the extracellular domain, read 24 h later. Measured: 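Light from a Notch-responsive E(spl)m3 luciferase reporter under active Notch, with control-promoter and no-Notch reporter wells to normalise; raw counts from paired wells a and b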. Reading the numbers: induced reporter light, run 1, well a and induced reporter light, run 1, well b: higher = more light from the Notch target reporter with active Notch; control promoter light, run 1, well a and control promoter light, run 1, well b: higher = more light from the viral control promoter (cell number, transfection, viability); uninduced reporter light, run 1, well a: higher = more light from the Notch target reporter without active Notch. Rule for the call: 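Wells with low control signal or poorly matching duplicates excluded; duplicates averaged; per source plate, z beyond ±2 for induced/control log2 ratio or beyond ±1.8 for induced/uninduced marks a hit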. Calls: active = modifier hit (raised or lowered Notch signal); inactive = not a hit.
In all, the deposit lists about 22,000 reagents; this is a random part of those with a known target gene and a result. Over the whole deposit, 403 (1.9%) are marked active. 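Unnormalised raw counts per well; ratio z-scores behind the hit calls and whether each hit raises or lowers signal are not deposited.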 Not stated in the record: the amount of reagent.

Gene	DRSC id	induced reporter light, run 1, well a	induced reporter light, run 1, well b	control promoter light, run 1, well a	control promoter light, run 1, well b	uninduced reporter light, run 1, well a	outcome
alpha-Man-IIa (alpha-Mannosidase class II a)	DRSC15393	41245	46755	43395	40180	2770	inactive
gb (genderblind)	DRSC15961	2.27e5	2.48e5	3.01e5	3.05e5	17660	inactive
Taldo (Transaldolase)	DRSC04320	1.68e5	1.98e5	1.46e5	1.47e5	12665	inactive
rumpel	DRSC18436	1.29e5	1.10e5	2.41e5	1.99e5	9380	inactive
Pex10 (Peroxin 10)	DRSC08599	1.08e5	1.06e5	1.84e5	2.04e5	8175	inactive
tinc (tincar)	DRSC14798	2.10e5	1.93e5	2.19e5	2.19e5	13650	inactive
tinc (tincar)	DRSC14799	1.89e5	1.79e5	1.94e5	2.29e5	14560	inactive
tinc (tincar)	DRSC16308	58595	50640	50730	43495	6665	inactive
tinc (tincar)	DRSC16309	1.93e5	1.70e5	2.28e5	1.97e5	13940	inactive
CG1941	DRSC06802	2.23e5	1.77e5	2.41e5	2.27e5	15942	inactive
CNBP (CCHC-type zinc finger nucleic acid binding protein)	DRSC04116	1.69e5	1.45e5	1.36e5	1.21e5	12638	inactive
CNBP (CCHC-type zinc finger nucleic acid binding protein)	DRSC04419	1.57e5	1.83e5	1.13e5	1.56e5	13685	inactive
OtopLb (Otopetrin-like b)	DRSC00594	1.75e5	1.57e5	1.10e5	1.33e5	15675	active
CG2111	DRSC18205	82325	76130	1.01e5	78975	5565	inactive
CG17271	DRSC15210	1.96e5	1.70e5	2.06e5	2.22e5	13005	inactive
CG17271	DRSC22629						inactive
CG11449	DRSC11662	1.15e5	87230	1.30e5	1.38e5	6935	inactive
CG3706	DRSC18649	1.34e5	1.16e5	2.61e5	2.41e5	11678	inactive
CG10761	DRSC17753	1.42e5	1.63e5	2.68e5	2.39e5	10810	inactive

Quoted from the entries so far, 6 entries:
Gene	DRSC id	induced reporter light, run 1, well a	induced reporter light, run 1, well b	control promoter light, run 1, well a	control promoter light, run 1, well b	uninduced reporter light, run 1, well a	outcome
Taldo (Transaldolase)	DRSC04320	1.68e5	1.98e5	1.46e5	1.47e5	12665	inactive
rumpel	DRSC18436	1.29e5	1.10e5	2.41e5	1.99e5	9380	inactive
Pex10 (Peroxin 10)	DRSC08599	1.08e5	1.06e5	1.84e5	2.04e5	8175	inactive
tinc (tincar)	DRSC14798	2.10e5	1.93e5	2.19e5	2.19e5	13650	inactive
tinc (tincar)	DRSC14799	1.89e5	1.79e5	1.94e5	2.29e5	14560	inactive
tinc (tincar)	DRSC16308	58595	50640	50730	43495	6665	inactive

The listing continues.
Gene	DRSC id	induced reporter light, run 1, well a	induced reporter light, run 1, well b	control promoter light, run 1, well a	control promoter light, run 1, well b	uninduced reporter light, run 1, well a	outcome
CG6527	DRSC10659	3.09e5	2.23e5	3.32e5	3.32e5	8815	active
CG13887	DRSC08357	72670	64610	1.27e5	1.52e5	7205	inactive
CG4781	DRSC04488	1.79e5	1.34e5	1.43e5	1.79e5	12160	inactive
Mtr4 (Mtr4 helicase)	DRSC03560	93385	1.13e5	82925	88235	6870	inactive
Srg3 (Sting-regulated gene 3)	DRSC08984	2.97e5	2.22e5	2.29e5	2.08e5	15030	inactive
Srg3 (Sting-regulated gene 3)	DRSC10178	1.89e5	1.68e5	2.99e5	2.81e5	8235	inactive
Itgbn (Integrin betanu subunit)	DRSC03493	37705	35305	59535	44270	3265	inactive
CG10907	DRSC09804	1.59e5	1.42e5	2.22e5	1.66e5	6800	inactive
kug (kugelei)	DRSC10911	1.75e5	1.80e5	88800	98705	10185	inactive
CG18404	DRSC15323	1.18e5	1.24e5	1.62e5	1.79e5	10480	inactive
Su(dx) (Suppressor of deltex)	DRSC00791	2.06e5	1.78e5	1.13e5	1.14e5	20545	active
AttC (Attacin-C)	DRSC06886	1.10e5	96560	1.23e5	1.21e5	8675	inactive
CG7320	DRSC10810	1.18e5	1.10e5	1.69e5	1.45e5	8865	inactive
TH1	DRSC20289	1.31e5	95760	1.84e5	2.20e5	10730	inactive
Klp10A (Kinesin-like protein at 10A)	DRSC19601	1.76e5	1.49e5	2.06e5	1.75e5	9735	inactive
